# Article PMC9873573, “Cryo-EM structure of the respiratory I + III2 supercomplex from Arabidopsis thaliana at 2 Å resolution” (Nature Plants, 2022)
# Chains of the proteins cited; added tags and fusions are not shown. Lines headed by an entry give the natural chain unless they say otherwise; changes in a name come on top.
# UniProt F4HTR4: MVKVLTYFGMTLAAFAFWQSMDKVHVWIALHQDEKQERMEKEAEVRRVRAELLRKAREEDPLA
# How the values were obtained:
# Assay in all cases: cryo-EM structure; native I + III2 supercomplex isolated from digitonin-solubilised Arabidopsis mitochondria (sucrose gradient, Superose 6 in GDN); 30 mM Tris-HCl pH 7.4, 60 mM NaCl, 0.02% GDN; 2.36 Å for the whole supercomplex, 2.03 Å after multibody refinement, 1.9 Å after density modification; both purified
# [1] = target: T1, complex I core subunit ND5 (Arabidopsis thaliana (endogenous in cell suspension culture)) (UniProt P29388)
# T1 sequence: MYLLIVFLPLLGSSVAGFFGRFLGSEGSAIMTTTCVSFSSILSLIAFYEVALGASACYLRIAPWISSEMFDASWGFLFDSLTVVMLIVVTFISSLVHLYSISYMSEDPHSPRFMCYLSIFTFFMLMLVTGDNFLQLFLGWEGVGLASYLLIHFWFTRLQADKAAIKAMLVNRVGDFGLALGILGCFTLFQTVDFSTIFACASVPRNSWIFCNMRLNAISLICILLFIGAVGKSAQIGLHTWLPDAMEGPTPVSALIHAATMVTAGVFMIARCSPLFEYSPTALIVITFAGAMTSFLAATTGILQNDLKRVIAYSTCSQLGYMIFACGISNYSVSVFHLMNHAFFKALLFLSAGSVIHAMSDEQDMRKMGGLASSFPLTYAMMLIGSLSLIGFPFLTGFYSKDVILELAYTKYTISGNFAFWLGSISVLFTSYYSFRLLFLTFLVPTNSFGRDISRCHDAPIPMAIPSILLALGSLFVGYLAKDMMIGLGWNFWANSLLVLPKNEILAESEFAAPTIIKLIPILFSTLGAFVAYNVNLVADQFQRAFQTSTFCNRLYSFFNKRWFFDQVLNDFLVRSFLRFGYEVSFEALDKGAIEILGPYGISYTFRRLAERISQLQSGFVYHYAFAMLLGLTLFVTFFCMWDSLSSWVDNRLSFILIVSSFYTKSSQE
# [2] = target: T2, complex I core subunit ND2 (Arabidopsis thaliana (endogenous in cell suspension culture)) (UniProt O05000)
# T2 sequence: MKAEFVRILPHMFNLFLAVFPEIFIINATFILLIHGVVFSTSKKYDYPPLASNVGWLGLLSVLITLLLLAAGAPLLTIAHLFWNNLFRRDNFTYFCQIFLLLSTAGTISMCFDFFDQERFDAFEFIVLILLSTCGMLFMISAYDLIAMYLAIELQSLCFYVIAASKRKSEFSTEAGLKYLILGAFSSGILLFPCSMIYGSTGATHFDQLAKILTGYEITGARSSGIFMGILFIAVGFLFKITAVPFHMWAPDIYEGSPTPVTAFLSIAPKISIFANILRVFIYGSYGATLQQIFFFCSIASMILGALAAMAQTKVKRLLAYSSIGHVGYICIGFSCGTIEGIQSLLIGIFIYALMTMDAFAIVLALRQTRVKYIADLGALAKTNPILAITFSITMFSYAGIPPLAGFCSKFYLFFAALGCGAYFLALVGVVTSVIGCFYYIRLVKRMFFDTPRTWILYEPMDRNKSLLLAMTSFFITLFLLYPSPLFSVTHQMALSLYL
# [3] = target: T3, complex I core subunit ND6 (Arabidopsis thaliana (endogenous in cell suspension culture)) (UniProt P60497)
# T3 sequence: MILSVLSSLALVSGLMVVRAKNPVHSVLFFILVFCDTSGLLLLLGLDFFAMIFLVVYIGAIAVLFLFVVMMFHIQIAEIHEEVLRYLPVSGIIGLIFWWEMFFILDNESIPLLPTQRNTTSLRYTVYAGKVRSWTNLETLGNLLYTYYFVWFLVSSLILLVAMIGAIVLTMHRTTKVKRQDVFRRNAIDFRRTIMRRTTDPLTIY
# [4] = target: T4, complex III subunit QCR6-1 (Arabidopsis thaliana (endogenous in cell suspension culture)) (UniProt Q0WWE3)
# T4 sequence: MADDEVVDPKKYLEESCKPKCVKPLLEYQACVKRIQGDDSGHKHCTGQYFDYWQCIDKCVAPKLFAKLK
binding [4],Substance,binding [1],binding [2],binding [3]
,complex I-ferredoxin (C1-FDX),binds,binds,
binds,complex I subunit P9 (from UniProt F4HTR4),,,binds

# These are yes or no findings as the source states them, for the method shown. A result given as binding can be weak or reduced; the word gives no strength.
